This passage reports binding results from publication PMC6199276.

These are yes or no findings as the source states them, for the method shown. A result given as binding can be weak or reduced; the word gives no strength. Tags and fused reporters may be left off the sequences shown. For some assays here: In cells and extracts the contact can be indirect.

Assay [1] has as its target T1, HLH-30::GFP (C. elegans) (UniProt H2KZZ2).
T1 sequence: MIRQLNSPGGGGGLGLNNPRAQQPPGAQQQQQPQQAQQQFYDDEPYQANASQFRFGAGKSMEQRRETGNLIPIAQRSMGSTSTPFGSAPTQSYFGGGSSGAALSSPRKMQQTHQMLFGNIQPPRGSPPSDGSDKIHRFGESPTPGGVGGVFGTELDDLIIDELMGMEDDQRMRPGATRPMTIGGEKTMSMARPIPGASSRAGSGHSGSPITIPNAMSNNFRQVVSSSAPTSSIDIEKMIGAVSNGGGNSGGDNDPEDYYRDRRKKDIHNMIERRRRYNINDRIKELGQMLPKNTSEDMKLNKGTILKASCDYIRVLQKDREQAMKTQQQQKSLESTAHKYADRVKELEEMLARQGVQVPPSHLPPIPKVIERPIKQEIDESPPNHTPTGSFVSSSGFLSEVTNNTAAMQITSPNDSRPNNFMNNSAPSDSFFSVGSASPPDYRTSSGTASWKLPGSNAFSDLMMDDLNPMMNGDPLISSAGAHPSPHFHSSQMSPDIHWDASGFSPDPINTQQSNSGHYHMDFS
Put plainly: co-IP; HLH-30::GFP immunoprecipitated with GFP-Trap resin from whole-worm lysates of daf-2 mutant animals expressing HLH-30::GFP and DAF-16::FLAG; Benzonase 50 U/ml; western blot anti-FLAG and anti-GFP.

The target of assay [2] is T1, HLH-30::GFP (C. elegans). Put plainly: SEC; cleared whole-worm lysates of animals co-expressing DAF-16::FLAG and HLH-30::GFP (untreated, daf-2(e1370ts), 6 h at 32 °C, or 6 h 6 mM tBOOH) on Superose 6 10/300; Benzonase 50 U/ml, 0.05% NP-40; fractions blotted anti-FLAG and anti-GFP.

In the case of DAF-16::FLAG (from UniProt O16850-4), the binding result in assay [1] and in assay [2] was “binds” in each case.
